Laboratory results: PubChem BioAssay AID504467 (National Center for Advancing Translational Sciences (NCATS), 2011)
In all, about 330,000 compounds went through this assay and about 7,700 (2.3%) were called active. This list was built around the results that the source calls inconclusive (neither active nor inactive); the mix of calls is not that of the screen. The call rests on the fitted dose curve; in most records, active means well fitted inhibition curve with a large enough effect; inconclusive means small, poorly fitted or top-dose-only effect, or effect the other way; inactive means flat fitted curve, though single readings scatter. Where the call is inconclusive, the potency comes from a doubtful curve fit.
Potency means the concentration at half of the fitted maximal effect.

Assay: qHTS screen for small molecules that inhibit ELG1-dependent DNA repair in human embryonic kidney (HEK293T) cells expressing luciferase-tagged ELG1; further: nearly all actives have a fitted effect of over 55% in size
Details: HEK293T ELG1-luciferase reporter, luminescence, 16 h, DNA damage induced by 5-fluorouridine; series mostly up to 46.1 µM
Summary of the method: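 Luminescence from the luciferase reporter, measured 30 min after ONE-Glo reagent at room temperature, was the read-out. Beforehand, 2,000 cells per well were exposed for 16 hr at 37 °C to 5-fluorouridine together with compound or vehicle.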
In the case of `O=C(Cc1ccc(Cl)cc1)Nc1ccc(-c2nnc(-c3ccco3)o2)cc1`, the Potency is reported as inconclusive: 11.6 µM [activator, partial curve, poor fit].
For `Cc1ccccc1Nc1nnc(SCC2CCCCO2)s1` (stereo not given), the Potency was inconclusive: 2.59 µM [activator, full curve].
For `O=C(COC(=O)CN1C(=O)C(=O)c2ccccc21)OCN1C(=O)c2ccccc2C1=O`, the Potency was inconclusive: 29.1 µM [activator, single point].
With `c1cc(C2CCN(Cc3nc(-c4ccc5c(c4)OCO5)no3)CC2)ccn1` the Potency was inconclusive: 18.3 µM [inhibitor, single point].
With `CCc1ccc(CN/C=C/C(=O)c2ccc(Br)cc2)cc1` the Potency was inconclusive: 29.1 µM [activator, single point].
For `O=C(O)c1cccc(Cn2cccn2)c1`, the Potency was inconclusive: 10.3 µM [activator, partial curve].
With `CCCCc1nc2cc(C(=O)NCCc3cnn(C)c3)ccc2o1` the Potency was inconclusive: 23.1 µM [activator, partial curve].
For `CCOc1cc(/C=N/Nc2ccccc2Cl)ccc1OCC(=O)O`, the Potency was inconclusive: 32.6 µM [activator, partial curve, poor fit].
For `COC(=O)c1ccc(NC(=S)NCCc2ccccc2C)cc1`, the Potency was “inactive”.
For `O=C(NC(=O)c1ccccc1N1CCCCC1)Nc1ccc(Br)cc1`, the Potency was inconclusive: 29.1 µM [activator, single point].
With `O=C(Cc1ccc(Br)cc1)Nc1ccc(S(=O)(=O)NCC2CCCO2)cc1` (stereo not given) the Potency was inconclusive: 29.1 µM [inhibitor, single point].
With `Cc1cccn2c(=O)c(C(=O)NC3CC(C)CC(C)(C)C3)c(O)nc12` (stereo not given) the Potency was inconclusive: 3.66 µM [inhibitor, single point].
For `CC1(C)C(=O)Nc2ccccc2N1C(=O)COC(=O)Cc1ccccc1F`, the Potency was “inactive”.
With `O=C(Nc1ccon1)Nc1cc(Cl)ccc1Cl` the Potency was “inactive”.
With `NS(=O)(=O)c1ccc(CCNC(=O)Cc2ccc(S(=O)(=O)N3CCOCC3)s2)cc1` the Potency was “inactive”.
In the case of `O=C(COc1ccccc1Cl)N1CCN(C(=O)c2ccco2)CC1`, the Potency is reported as “inactive”.
With `O=C(NCc1ccccc1)C(c1ccccc1)N(C(=O)c1csnn1)c1ccccc1` (stereo not given) the Potency was inconclusive: 29.1 µM [inhibitor, single point].
In the case of `COc1ccc(NC(=O)c2ccc3c(c2)CCN3S(=O)(=O)c2ccccc2)cc1`, the Potency is reported as inconclusive: 18.3 µM [inhibitor, single point].
With `COc1cc(/C=C2\C=CC(=O)O2)cc(OC)c1` the Potency was “inactive”.
In the case of `Cc1ccc(-c2cc(C(=O)Nc3cccnc3)c3ccccc3n2)o1`, the Potency is reported as inconclusive: 29.1 µM [inhibitor, single point].
